From patent US20070203654A1, “Measuring apparatus, and measuring method” (FUJI PHOTO FILM CO., LTD., priority 2005, published 2007)

Assay: SPR measurement of amount of non-specific adsorption on attachment film 1
Assay type: binding
Description: Next, preparation of an attachment film on the dielectric block which has been explained in the above embodiment, and measurement of the amount of non-specific adsorption of a compound on the attachment film prepared will be described. The preparation of an attachment film, and the measurement of the amount of non-specific adsorption was carried out using a commercially available surface plasmon sensor. […] It is obvious that, depending upon the structure of the compound, the amount of non-specific adsorption on the attachment film varies.

SMILES: NS(=O)(=O)c1cc2c(cc1Cl)NCNS2(=O)=O [Compound C]
- Amount of non-specific adsorption on attachment film 1 (0.01 mM in PBS buffer (10 mM sodium phosphate, 150 mM NaCl, 0.005% Tween20, pH 7.4)/DMSO 5%, flown 3 min, then buffer 3 min): 0 RU
- Amount of non-specific adsorption on attachment film (attachment film 1, 0.03 mM in PBS buffer (10 mM sodium phosphate, 150 mM NaCl, pH 7.4)/DMSO 5%): 0 RU
